In paper PMC5236087, “A Generic Multi-Compartmental CNS Distribution Model Structure for 9 Drugs Allows Prediction of Human Brain Target Site Concentrations” (Pharmaceutical Research, 2016):

How the values were obtained:
[1] = cited from earlier work
[2] = In-vivo recovery of microdialysis probes (retrodialysis); set-up: species or system rat

In the case of `CC(=O)Nc1ccc(O)cc1` [Acetaminophen], the “in vivo recovery (loss %)” value ([1]; BrainECF probe, ref Westerhout, 2011) is listed as 12.0%, the “in vivo recovery (loss %)” value ([1]; CSFCM probe, ref Westerhout, 2011) is listed as 8.60% and the “in vivo recovery (loss %)” value ([1]; CSFLV probe, ref Westerhout, 2011) is listed as 8.10%.

For `CC(C)NCC(O)COc1ccc(CC(N)=O)cc1` (stereo not shown) [Atenolol], the “in vivo recovery (loss %)” value ([1]; BrainECF probe, ref de lange, 1994) is listed as “BrainECF: 13.0%”.

In the case of `CN(Cc1cnc2nc(N)nc(N)c2n1)c1ccc(C(=O)N[C@@H](CCC(=O)O)C(=O)O)cc1` [Methotrexate], the “in vivo recovery (loss %)” value ([1]; BrainECF probe, with probenecid, ref Westerhout, 2014) is listed as 7.10%, the “in vivo recovery (loss %)” value ([1]; BrainECF probe, without probenecid, ref Westerhout, 2014) is listed as 22.1% and the “in vivo recovery (loss %)” value ([1]; CSFCM probe, with probenecid, ref Westerhout, 2014) is listed as 21.6%. The “in vivo recovery (loss %)” value ([1]; CSFCM probe, without probenecid, ref Westerhout, 2014) was 35.9%, the “in vivo recovery (loss %)” value ([1]; CSFLV probe, with probenecid, ref Westerhout, 2014) was 16.9% and the “in vivo recovery (loss %)” value ([1]; CSFLV probe, without probenecid, ref Westerhout, 2014) was 28.1%.

In the case of `CN1CC[C@]23c4c5ccc(O)c4O[C@H]2[C@@H](O)C=C[C@H]3[C@H]1C5` [Morphine], the “in vivo recovery (loss %)” value ([1]; BrainECF probe, 4mg/kg, ref Groenendaal, 2007) is given as 16.1%, the “in vivo recovery (loss %)” value ([1]; BrainECF probe, 40mg/kg, ref Groenendaal, 2007) is given as 20.3% and the “in vivo recovery (loss %)” value ([1]; BrainECF probe, ref Bouw, 2000) is given as 8.40%. The “in vivo recovery (loss %)” value ([1]; Plasma probe, ref Bouw, 2000) was 40.9%.

In the case of `Cc1nc2n(c(=O)c1CCN1CCC(c3noc4cc(F)ccc34)CC1)CCCC2O` (stereo not shown) [Paliperidone], the “in vivo recovery (loss %)” value ([2]; BrainECF probe) is reported as 18.0% and the “in vivo recovery (loss %)” value ([2]; CSFCM probe) is reported as 10.0%.

For `O=C1NC(=O)C(c2ccccc2)(c2ccccc2)N1` [Phenytoin], the “in vivo recovery (loss %)” value ([2]; BrainECF probe) was “BrainECF: 35.0%”.

In the case of `C=C[C@H]1C[N@@]2CC[C@H]1C[C@@H]2[C@@H](O)c1ccnc2ccc(OC)cc12` [Quinidine], the “in vivo recovery (loss %)” value ([1]; BrainECF probe, ref Westerhout, 2013) is given as 9.10%, the “in vivo recovery (loss %)” value ([1]; CSFCM probe, ref Westerhout, 2013) is given as 3.50% and the “in vivo recovery (loss %)” value ([1]; CSFLV probe, ref Westerhout, 2013) is given as 2.90%.

With `Cc1nc2n(c(=O)c1CCN1CCC(c3noc4cc(F)ccc34)CC1)CCCC2` [Risperidone] the “in vivo recovery (loss %)” value ([2]; BrainECF probe) was 22.0% and the “in vivo recovery (loss %)” value ([2]; CSFCM probe) was 10.0%.

Like-named read-outs stand apart in the source and are kept apart here.
